± gives the standard deviation. Only a part is listed here, and it is no random draw. The uncertainty is large for many entries. This is one part of the list.

Experiment [1] has as its system MILI (PIWIL2) piRISC loaded with L1MC piRNA (26 nt). Put plainly: pre-steady-state target cleavage rate (min^-1); higher = faster piRNA-guided slicing of the target. Particulars: guide: L1MC piRNA 5'p-UAACUAAAUACUAUGCAAGCUGUAGG
The method in brief: (§1)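 The pre-steady-state cleavage rate was obtained by Cleave-'n-Seq with a burst-and-steady-state fit. A transcribed, DNA-blocked target RNA library (0.1 nM) was mixed with 1 nM active affinity-purified piRISC carrying one synthetic guide, with or without 500 nM GTSF1 partner protein, in HEPES–potassium acetate buffer at 33 °C for 0–8 or 0–960 min. Uncleaved targets were sequenced and normalised to depth and to weakly complementary targets, with three trials pooled and k3 capped at 0.0001 min^-1.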

The test system of experiment [2] is MIWI (PIWIL1) piRISC loaded with L1MC piRNA (30 nt). Described as above. Particulars: guide: L1MC piRNA 5'p-UAACUAAAUACUAUGCAAGCUGUAGGUCCU
In a few lines: as §1

Experiment [3] relates to EfPiwi piRISC loaded with L1MC piRNA (26 nt). In words: pre-steady-state target cleavage rate (min^-1); guide: L1MC piRNA 5'p-UAACUAAAUACUAUGCAAGCUGUAGG; MIWI and MILI are mouse PIWI proteins and EfPiwi is from a freshwater sponge; tags in brackets are library labels; higher = faster piRNA-guided slicing of the target. In a few lines:
as §1

Setting [4] is: auxiliary factor: 500 nM mouse GTSF1.
[5] abbreviates: auxiliary factor: none (no GTSF1).
The mark [6] stands for this setting: auxiliary factor: 500 nM Ephydatia muelleri Gtsf1.

On to UCCUCCUACAGCUUGCAUAGUAUAAACAAA, for which the “pre-steady-state target cleavage rate” value in experiment [1] (setting [4]) stood at 0.165 ± 0.043; in experiment [1] (setting [5]), 0.000929 ± 0.0058; in experiment [2] (setting [5]), 0.000722 ± 0.0075; in experiment [3] (auxiliary factor: none (no Gtsf1)), 0.000537 ± 0.014.
As to UCCUGGAUGUCCUUGCAUUGUAUUUUGUUA, the “pre-steady-state target cleavage rate” value in experiment [1] (setting [4]) was 0.0388 ± 0.013; in experiment [1] (setting [5]), 0.00207 ± 0.0038; in experiment [2] (setting [5]) it was 0.00159 ± 0.005; in experiment [3] (setting [6]), 0.00179 ± 0.0066.
Turning to UCCUGGAUGUCGAACCAUAGUAUUUAGUAUA, the “pre-steady-state target cleavage rate” value in experiment [1] (setting [4]) was found to be 0.000795 ± 0.0073; in experiment [1] (setting [5]) it was 0.00014 ± 0.015; in experiment [2] (setting [4]), 0.000465 ± 0.01; in experiment [2] (setting [5]) it was 0.00066 ± 0.0096; in experiment [3] (setting [6]), 0.000771 ± 0.0088.
On to UCCUGGAUGUCGUUGAUAGUAUUUAGUUA, for which the “pre-steady-state target cleavage rate” value is 0.00115 ± 0.0067 in experiment [1] (setting [4]), 0.000563 ± 0.0076 in experiment [1] (setting [5]), 0.000549 ± 0.006 in experiment [2] (setting [5]) and 0.000625 ± 0.01 in experiment [3] (setting [6]).

The values above are taken from the supplement of paper PMC10338343.
